Measurements reported in PubChem BioAssay AID1259424 (University of Nebraska Medical Center, 2018).
The deposit covers about 14,000 reagents; this is a random part of them. 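Higher correlation or smaller distance means closer resemblance to KSR1 loss; control wells, including KSR1 knockdowns, recur on many plates.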 Not all columns of the deposit are shown. Reagent sequences are not shown. The record does not give: the time to read-out.

- Screen: 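Seek colon cancer survival genes behaving like KSR1, using a six-gene signature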 (primary screen)
- Cells: human HCT116 colon cancer cells
- Knock-down reagent: siRNA pool against human genes, 50 nM
- Measured: 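Log2 levels of six mRNAs (branched-DNA multiplex), adjusted by two reference genes and the non-targeting median, then scored against the average KSR1 knockdown pattern as Pearson r and euclidean distance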
- Direction: mean correlation with KSR1 profile: higher = expression change more like KSR1 knockdown; mean distance from KSR1 profile: higher = expression change less like KSR1 knockdown

{"gene symbol": "HMGCL (3-hydroxy-3-methylglutaryl-CoA lyase)", "mean correlation with KSR1 profile": 0.124, "mean distance from KSR1 profile": 2.06}
{"gene symbol": "ARHGAP5 (Rho GTPase activating protein 5)", "mean correlation with KSR1 profile": -0.92, "mean distance from KSR1 profile": 1.73}
{"gene symbol": "GATA2 (GATA binding protein 2)", "mean correlation with KSR1 profile": 0.335, "mean distance from KSR1 profile": 2.15}
{"gene symbol": "CCR1 (C-C motif chemokine receptor 1)", "mean correlation with KSR1 profile": 0.712, "mean distance from KSR1 profile": 1.34}
{"gene symbol": "ADGRF5 (adhesion G protein-coupled receptor F5)", "mean correlation with KSR1 profile": 0.565, "mean distance from KSR1 profile": 1.54}
{"gene symbol": "HK2 (hexokinase 2)", "mean correlation with KSR1 profile": 0.144, "mean distance from KSR1 profile": 4.7}
{"gene symbol": "MTF1 (metal regulatory transcription factor 1)", "mean correlation with KSR1 profile": -0.205, "mean distance from KSR1 profile": 1.75}

Continued; the last 2 above are carried over.
{"gene symbol": "HK2 (hexokinase 2)", "mean correlation with KSR1 profile": 0.144, "mean distance from KSR1 profile": 4.7}
{"gene symbol": "MTF1 (metal regulatory transcription factor 1)", "mean correlation with KSR1 profile": -0.205, "mean distance from KSR1 profile": 1.75}
{"gene symbol": "BCL3 (BCL3 transcription coactivator)", "mean correlation with KSR1 profile": 0.136, "mean distance from KSR1 profile": 2.38}
{"gene symbol": "PPP4C (protein phosphatase 4 catalytic subunit)", "mean correlation with KSR1 profile": 0.0111, "mean distance from KSR1 profile": 2.8}
{"gene symbol": "SEC31B (SEC31 homolog B, COPII component)", "mean correlation with KSR1 profile": -0.285, "mean distance from KSR1 profile": 1.69}
{"gene symbol": "ZBTB11 (zinc finger and BTB domain containing 11)", "mean correlation with KSR1 profile": 0.208, "mean distance from KSR1 profile": 1.4}
{"gene symbol": "PKIG (cAMP-dependent protein kinase inhibitor gamma)", "mean correlation with KSR1 profile": -0.638, "mean distance from KSR1 profile": 1.43}
